The structures given here were assigned with low confidence; some may be wrong.

Protein sequences, listed by entry. Tags and fused reporters are not part of them. Residues count along the entry.
UniProt Q14416, 19-872 limits assumed: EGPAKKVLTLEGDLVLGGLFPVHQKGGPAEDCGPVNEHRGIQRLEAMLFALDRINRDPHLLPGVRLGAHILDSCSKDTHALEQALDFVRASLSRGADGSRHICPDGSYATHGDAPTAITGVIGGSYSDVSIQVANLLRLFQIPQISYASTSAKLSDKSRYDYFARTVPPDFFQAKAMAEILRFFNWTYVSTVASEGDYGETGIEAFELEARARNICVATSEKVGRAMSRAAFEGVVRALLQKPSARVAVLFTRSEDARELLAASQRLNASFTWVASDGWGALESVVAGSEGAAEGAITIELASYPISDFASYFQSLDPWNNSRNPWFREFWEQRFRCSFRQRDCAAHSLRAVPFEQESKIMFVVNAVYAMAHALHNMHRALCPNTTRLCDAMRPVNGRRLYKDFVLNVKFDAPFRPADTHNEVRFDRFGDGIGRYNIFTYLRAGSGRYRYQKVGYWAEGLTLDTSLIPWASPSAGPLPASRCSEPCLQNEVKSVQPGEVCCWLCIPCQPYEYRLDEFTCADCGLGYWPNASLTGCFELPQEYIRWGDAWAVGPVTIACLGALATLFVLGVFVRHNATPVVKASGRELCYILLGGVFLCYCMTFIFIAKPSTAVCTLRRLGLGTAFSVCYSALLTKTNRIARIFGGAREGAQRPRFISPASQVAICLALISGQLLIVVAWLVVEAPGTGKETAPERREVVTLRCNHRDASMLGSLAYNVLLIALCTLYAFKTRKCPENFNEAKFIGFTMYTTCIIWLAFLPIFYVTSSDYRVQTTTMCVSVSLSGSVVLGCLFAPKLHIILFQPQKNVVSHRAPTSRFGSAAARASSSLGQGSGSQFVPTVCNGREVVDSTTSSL

The test addresses mGluR2 receptor (metabotropic glutamate receptor 2) (Homo sapiens, UniProt Q14416). The experiment in a line: mGluR2 Potentiator Screen, FLIPR, EC10-EC20 glutamate challenge. The procedure: Procedure for mGluR2 Potentiator Screen NLB Methods EC10-EC20 Challenge Cell Culture and Plating:
Cells used for this screen are HEK cells stably transfected with the mGluR2 receptor (metabotropic glutamate receptor 2) and the Gα15 G protein. Clones were identified by functional activity (FLIPR). Cells are grown in growth media containing: DMEM High Glucose with Glutamine and Na Pyruvate (GIBCO), 10% (v/v) Heat inactivate FBS (GIBCO) G418 500 ug/ml (from 50 mg/ml stock) (GIBCO) and Blasticidin 3 ug/ml (from 5 mg/ml stock made in H2O) (Invitrogen).
2 days before the assay cell are trypsinized with 0.25% trysin/EDTA (GIBCO), spun down at 1000 rpm for 5 minutes, resuspended in growth media and plated on polystyrene 384 well black wall/clear bottom poly-D-lysine coated plates at a density of approximately 18,000 cells/well in a volume of 50 μL per well. One day before the assay the growth media is removed from the plates by flicking and replaced with media containing DMEM High Glucose without Glutamine and Na Pyruvate (GIBCO) and 10% (v/v) dialyzed FBS (GIBCO). […]
Results are analyzed by dividing the peak fluorescent value of the FLIPR response by the […] to achieve a ratio response. The ratios are then analyzed by curve fitting programs. […]

Broadly, the EC50 is the concentration giving half of the maximal effect. Turning to `Cc1ccc(C2CCN(Cc3nc4ccccc4n3C)CC2)cc1`, the EC50 stood at 56.2 nM.
